# Measured values reported in patent US10399950B2, “Substituted amino azoles as plant growth regulators” (SYNGENTA PARTICIPATIONS AG, priority 2013, dated 2019).
# Some entries share one result that the patent states for a list of compounds.
# Tests used:
# [1] = system: French beans (Phaseolus vulgaris) of the variety Fulvio; experiment: Bean assay: elongation of the petiole of the second leaf; assay type: in vivo; settings: five micro liters applied to wound at base of second internode eleven days after sowing; measured fourteen days after application
# [2] = system: Wheat (Triticum aestivum) seeds of the variety Arina; experiment: Wheat assay: plant (root and shoot) area and curliness of the roots; assay type: in vivo; settings: seeds in pouches with 10 mL compound solution; three days at 17° C., then 5° C.; scanned twelve days after sowing/application
# Procedure: Two bioassays were developed in order to assay the activity of the compounds of the present invention. In the first assay, the activity of the compound was quantified in beans based on its effect on the elongation of the petiole of the second leaf. In the second assay, the compound's effect on the root growth of wheat was determined. The test compounds were dissolved in small volumes of dimethyl sulfoxide and diluted to the appropriate concentration with water. Wheat (Triticum aestivum) seeds of the variety Arina were sown in pouches (14.7×13.2 cm) containing 10 mL of the appropriate compound solution. The pouches were stored at 17° C. for three days to enable the seeds to germinate. Plants were then stored at 5° C. Twelve days after sowing/application, plants were removed from the pouches and scanned. The effect of the compounds was quantified by determining plant (root and shoot) area and curliness of the roots (curliness is an indicator of brassinosteroid-type activity).
Compound,increase of the length of the petiole of the second leaf [1],reduction of the plant (root and shoot) area [2]
"N#Cc1cnc(NC(=O)CCC(=O)O)s1 [A5, 4-[(5-cyanothiazol-2-yl)amino]-4-oxo-butanoic acid]",≥ 10%,≥ 5%
"N#Cc1cnc(N2C(=O)CCC2=O)s1 [B1, 2-(2,5-Dioxopyrrolidin-1-yl) thiazole-5-carbonitrile]",≥ 10%,
"COC(=O)CCC(=O)Nc1ncc(C#N)s1 [A1, Methyl 4-[(5-cyanothiazol-2-yl)amino]-4-oxo-butanoate]",,≥ 5%
